Measured values reported in the supplement of paper PMC10849652.
The list shows a part of the results.

By UniProt entry, the sequences of proteins in these tests, tags left out. Where a name states a change or a piece, a line headed by the entry shows the natural chain unless it says otherwise.
UniProt Q13043: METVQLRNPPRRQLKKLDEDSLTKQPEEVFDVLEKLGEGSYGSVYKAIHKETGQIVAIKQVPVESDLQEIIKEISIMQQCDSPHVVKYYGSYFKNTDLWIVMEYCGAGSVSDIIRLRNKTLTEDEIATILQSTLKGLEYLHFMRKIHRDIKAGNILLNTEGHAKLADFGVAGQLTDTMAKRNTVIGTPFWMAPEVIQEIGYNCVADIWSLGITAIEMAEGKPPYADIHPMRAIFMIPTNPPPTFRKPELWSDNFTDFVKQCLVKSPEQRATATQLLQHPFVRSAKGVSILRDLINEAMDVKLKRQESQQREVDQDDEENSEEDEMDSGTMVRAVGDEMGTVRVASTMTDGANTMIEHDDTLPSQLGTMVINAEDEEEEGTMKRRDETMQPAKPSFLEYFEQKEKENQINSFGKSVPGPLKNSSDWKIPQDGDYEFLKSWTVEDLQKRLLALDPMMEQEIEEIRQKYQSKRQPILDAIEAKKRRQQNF
UniProt Q15833: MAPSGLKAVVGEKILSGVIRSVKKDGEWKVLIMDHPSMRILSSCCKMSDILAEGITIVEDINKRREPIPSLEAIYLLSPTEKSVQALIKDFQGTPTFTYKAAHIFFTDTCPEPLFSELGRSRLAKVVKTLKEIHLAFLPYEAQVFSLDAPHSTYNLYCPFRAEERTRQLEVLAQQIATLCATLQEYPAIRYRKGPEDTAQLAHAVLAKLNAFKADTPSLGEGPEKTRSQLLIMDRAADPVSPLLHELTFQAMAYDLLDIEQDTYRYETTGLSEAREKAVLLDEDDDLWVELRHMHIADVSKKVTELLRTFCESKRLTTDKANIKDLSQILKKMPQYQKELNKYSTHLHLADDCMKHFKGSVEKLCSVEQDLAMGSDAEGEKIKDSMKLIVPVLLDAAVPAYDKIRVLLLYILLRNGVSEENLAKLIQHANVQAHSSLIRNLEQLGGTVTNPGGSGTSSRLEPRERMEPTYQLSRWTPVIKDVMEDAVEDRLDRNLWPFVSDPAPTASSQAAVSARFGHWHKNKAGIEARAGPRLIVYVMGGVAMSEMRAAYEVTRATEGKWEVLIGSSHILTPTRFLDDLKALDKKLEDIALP
UniProt Q9H2K8: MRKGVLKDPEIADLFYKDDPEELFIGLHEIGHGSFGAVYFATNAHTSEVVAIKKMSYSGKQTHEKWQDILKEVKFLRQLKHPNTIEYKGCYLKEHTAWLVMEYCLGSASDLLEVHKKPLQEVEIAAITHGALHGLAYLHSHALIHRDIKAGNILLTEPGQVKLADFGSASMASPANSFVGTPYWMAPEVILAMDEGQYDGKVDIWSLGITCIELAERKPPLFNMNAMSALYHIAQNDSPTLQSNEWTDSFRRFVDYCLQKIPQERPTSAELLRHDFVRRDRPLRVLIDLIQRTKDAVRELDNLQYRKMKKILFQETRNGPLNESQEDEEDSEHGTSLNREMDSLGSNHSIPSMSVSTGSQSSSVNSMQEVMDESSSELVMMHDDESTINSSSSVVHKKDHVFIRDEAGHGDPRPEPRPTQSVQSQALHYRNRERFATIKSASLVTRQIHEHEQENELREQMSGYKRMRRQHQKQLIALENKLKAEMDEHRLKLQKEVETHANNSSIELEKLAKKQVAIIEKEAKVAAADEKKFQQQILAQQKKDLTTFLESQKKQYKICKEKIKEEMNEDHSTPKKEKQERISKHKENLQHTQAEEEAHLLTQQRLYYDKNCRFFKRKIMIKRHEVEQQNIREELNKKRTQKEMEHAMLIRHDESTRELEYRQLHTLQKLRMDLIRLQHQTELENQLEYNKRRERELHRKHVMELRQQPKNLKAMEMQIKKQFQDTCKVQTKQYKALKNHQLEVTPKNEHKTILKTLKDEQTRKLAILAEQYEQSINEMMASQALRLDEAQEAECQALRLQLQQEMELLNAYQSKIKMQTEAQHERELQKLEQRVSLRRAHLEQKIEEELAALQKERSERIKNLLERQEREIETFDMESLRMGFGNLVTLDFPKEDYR
UniProt Q16594, whole entry, looked up: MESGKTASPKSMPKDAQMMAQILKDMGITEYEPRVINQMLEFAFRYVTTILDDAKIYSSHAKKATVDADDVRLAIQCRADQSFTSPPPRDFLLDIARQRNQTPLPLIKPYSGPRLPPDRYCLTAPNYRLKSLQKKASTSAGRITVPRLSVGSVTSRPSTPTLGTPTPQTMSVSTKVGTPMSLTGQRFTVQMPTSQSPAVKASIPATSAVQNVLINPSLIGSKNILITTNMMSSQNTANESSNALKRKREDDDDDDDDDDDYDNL
UniProt Q9BW92: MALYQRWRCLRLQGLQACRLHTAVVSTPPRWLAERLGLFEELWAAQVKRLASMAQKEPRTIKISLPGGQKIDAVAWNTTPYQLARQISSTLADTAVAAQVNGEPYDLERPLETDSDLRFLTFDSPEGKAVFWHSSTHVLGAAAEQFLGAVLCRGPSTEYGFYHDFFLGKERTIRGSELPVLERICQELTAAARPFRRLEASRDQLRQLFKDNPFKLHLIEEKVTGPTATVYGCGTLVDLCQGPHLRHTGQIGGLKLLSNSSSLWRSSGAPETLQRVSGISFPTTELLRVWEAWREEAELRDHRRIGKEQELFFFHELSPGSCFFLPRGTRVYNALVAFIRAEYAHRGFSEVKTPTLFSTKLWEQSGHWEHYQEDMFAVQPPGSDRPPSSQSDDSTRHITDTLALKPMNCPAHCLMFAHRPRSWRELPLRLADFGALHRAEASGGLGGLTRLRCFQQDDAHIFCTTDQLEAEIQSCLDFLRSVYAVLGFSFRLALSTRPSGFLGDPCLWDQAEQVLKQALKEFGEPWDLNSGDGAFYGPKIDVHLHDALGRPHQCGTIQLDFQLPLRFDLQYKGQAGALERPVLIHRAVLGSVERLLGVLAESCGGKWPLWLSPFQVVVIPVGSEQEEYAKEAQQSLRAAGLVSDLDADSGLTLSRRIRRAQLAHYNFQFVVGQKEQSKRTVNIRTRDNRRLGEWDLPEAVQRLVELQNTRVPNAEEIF
UniProt Q9C0B7: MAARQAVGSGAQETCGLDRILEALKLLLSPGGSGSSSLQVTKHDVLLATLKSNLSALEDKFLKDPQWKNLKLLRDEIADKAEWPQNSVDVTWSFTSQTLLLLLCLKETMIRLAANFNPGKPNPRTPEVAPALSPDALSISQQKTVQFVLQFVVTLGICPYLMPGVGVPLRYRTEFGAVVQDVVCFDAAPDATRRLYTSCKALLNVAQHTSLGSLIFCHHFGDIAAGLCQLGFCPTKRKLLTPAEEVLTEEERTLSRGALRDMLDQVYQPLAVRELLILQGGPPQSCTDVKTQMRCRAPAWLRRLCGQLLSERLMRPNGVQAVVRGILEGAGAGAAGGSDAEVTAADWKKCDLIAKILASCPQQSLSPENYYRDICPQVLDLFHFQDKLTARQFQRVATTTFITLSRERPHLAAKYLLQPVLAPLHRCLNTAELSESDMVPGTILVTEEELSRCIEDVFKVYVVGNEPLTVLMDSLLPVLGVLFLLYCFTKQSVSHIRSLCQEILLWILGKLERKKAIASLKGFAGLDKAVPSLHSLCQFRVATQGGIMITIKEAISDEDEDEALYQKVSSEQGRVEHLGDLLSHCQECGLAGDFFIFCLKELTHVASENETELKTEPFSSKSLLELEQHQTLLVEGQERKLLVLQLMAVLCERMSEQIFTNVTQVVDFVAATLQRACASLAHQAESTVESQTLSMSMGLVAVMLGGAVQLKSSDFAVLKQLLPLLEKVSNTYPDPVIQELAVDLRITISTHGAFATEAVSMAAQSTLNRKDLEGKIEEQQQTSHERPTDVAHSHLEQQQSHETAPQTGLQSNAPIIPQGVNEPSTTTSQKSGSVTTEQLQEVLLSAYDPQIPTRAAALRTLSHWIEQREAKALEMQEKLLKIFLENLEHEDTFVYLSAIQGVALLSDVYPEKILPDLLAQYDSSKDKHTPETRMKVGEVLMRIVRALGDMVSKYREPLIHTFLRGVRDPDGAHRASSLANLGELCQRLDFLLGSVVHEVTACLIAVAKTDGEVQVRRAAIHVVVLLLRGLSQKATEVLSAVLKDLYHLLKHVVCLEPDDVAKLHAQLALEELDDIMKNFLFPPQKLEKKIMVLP
UniProt P63165, whole entry, looked up: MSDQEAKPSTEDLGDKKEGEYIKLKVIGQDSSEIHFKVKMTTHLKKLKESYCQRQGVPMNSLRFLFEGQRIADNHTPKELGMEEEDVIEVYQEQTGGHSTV
UniProt Q92844: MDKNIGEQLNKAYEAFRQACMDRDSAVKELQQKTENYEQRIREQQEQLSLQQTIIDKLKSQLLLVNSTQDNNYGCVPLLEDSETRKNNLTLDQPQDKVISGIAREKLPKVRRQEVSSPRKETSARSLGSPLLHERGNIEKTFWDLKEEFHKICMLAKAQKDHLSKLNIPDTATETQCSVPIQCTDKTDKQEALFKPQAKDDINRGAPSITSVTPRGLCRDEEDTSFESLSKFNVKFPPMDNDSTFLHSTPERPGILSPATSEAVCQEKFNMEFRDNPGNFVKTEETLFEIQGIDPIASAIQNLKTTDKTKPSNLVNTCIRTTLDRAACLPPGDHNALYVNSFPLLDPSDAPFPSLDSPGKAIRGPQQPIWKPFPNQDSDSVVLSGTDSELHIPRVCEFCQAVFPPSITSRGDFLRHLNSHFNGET
UniProt Q9P2R7: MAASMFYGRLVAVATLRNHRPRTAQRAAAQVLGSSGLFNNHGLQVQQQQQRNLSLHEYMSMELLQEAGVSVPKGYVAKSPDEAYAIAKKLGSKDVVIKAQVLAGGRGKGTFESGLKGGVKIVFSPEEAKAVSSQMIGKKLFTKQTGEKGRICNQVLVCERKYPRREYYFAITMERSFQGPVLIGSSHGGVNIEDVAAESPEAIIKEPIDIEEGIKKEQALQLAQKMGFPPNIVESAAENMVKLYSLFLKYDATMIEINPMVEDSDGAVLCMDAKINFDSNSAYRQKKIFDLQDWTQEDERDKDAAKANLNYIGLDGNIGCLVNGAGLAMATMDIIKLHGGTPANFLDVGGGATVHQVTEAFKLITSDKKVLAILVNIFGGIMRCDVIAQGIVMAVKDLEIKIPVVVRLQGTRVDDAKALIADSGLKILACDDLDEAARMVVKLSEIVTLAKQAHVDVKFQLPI
UniProt Q8NBK3: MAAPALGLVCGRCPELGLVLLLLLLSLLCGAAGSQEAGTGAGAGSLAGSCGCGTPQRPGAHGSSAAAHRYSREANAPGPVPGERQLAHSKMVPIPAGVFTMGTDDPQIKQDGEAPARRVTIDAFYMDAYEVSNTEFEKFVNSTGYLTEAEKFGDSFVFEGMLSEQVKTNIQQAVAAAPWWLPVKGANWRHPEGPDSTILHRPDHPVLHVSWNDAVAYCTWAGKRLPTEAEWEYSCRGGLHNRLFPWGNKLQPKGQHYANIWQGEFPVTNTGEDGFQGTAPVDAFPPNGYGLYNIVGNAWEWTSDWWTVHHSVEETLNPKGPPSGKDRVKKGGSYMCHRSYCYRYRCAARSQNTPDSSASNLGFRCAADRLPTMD
UniProt Q8IWZ8: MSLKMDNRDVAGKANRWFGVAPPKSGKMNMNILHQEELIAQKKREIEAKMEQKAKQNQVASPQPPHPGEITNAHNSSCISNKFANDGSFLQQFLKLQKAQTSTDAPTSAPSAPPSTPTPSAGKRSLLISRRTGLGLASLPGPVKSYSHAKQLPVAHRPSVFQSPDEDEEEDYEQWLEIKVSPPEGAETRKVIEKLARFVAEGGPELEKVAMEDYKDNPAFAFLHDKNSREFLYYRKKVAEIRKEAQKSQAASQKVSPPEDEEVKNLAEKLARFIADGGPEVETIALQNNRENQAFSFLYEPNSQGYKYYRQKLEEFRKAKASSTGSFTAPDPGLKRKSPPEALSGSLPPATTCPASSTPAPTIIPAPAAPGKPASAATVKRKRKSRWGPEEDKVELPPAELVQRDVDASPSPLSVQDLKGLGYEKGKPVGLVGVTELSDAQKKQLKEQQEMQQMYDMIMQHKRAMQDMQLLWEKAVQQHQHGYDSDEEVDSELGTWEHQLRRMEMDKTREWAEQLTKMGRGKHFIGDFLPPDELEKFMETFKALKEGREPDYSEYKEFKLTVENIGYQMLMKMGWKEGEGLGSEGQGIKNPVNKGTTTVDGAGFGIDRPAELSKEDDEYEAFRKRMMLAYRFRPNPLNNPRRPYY
UniProt P27105: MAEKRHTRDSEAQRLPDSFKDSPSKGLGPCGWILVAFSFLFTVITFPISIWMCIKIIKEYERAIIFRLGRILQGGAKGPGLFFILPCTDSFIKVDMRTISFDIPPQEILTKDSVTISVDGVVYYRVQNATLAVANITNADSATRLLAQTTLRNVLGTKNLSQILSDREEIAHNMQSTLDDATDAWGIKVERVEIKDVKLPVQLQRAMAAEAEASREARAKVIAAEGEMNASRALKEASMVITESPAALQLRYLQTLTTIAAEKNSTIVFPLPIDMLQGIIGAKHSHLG

Tests used:
Test in all cases: log2 fold change, soluble protein after heating vs DMSO (PISA); higher = thermal stabilisation; K562 cells, 10 uM, 30 min; active = over 0.2 and 3.5 SD of the protein, either way, in both replicates (recomputed)
[1] = compound: CN1CCN(CCOc2cc(OC3CCOCC3)c3c(Nc4c(Cl)ccc5c4OCO5)ncnc3c2)CC1 [saracatinib]
Outline: (§1)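 For each measurement, 10 μM compound was applied for 30 min to K562 cells at 2×10^6 cells/mL. Aliquots were heated for 3 min across 48°C-58°C, pooled, and extracted in PBS with 0.5% NP-40 at 4°C; the supernatant after 21,000xg for 90 min was soluble protein. This was quantified by TMTpro 16plex LC-MS/MS with channel sums equalised, and thermal stability was reported relative to control samples from duplicates, on a log2 fold-change scale.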

[2] = compound: CN1CCN(c2nc(C3=C(c4c[nH]c5ccccc45)C(=O)NC3=O)c3ccccc3n2)CC1 [sotrastaurin]
Outline: as §1

[3] = compound: CN1CCc2c(c3ccccc3n2Cc2ccc(C(=O)NO)cc2)C1 [Tubastatin A]
Outline: as §1

[4] = compound: CNC(=O)C1=CC=CC=C1NC2=NC(=NC=C2Cl)NC3=C(C=C(C=C3)N4CCOCC4)OC
Outline: as §1

[5] = compound: CNC(=O)c1ccc(Nc2ncc(C(F)(F)F)c(NCc3nccnc3N(C)S(C)(=O)=O)n2)cc1 [defactinib]
Outline: as §1

[6] = compound: CNCc1ccc(-c2[nH]c3cc(F)cc4c3c2CCNC4=O)cc1 [rucaparib]
Outline: as §1

[7] = compound: CNc1nc(-c2ccc3c(N)n[nH]c3c2)cc(N2C[C@@H](C(=O)NC3CCCCC3)CC[C@H]2C)n1
Outline: as §1

[8] = compound: COC(=O)N[C@@H](C)CNc1nccc(-c2cn(C(C)C)nc2-c2cc(Cl)cc(NS(C)(=O)=O)c2F)n1 [encorafenib]
Outline: as §1

[9] = compound: COC(=O)[C@H](CCSC)NC(=O)C1=C(C=C(C=C1)NC[C@H](CS)N)C2=CC=CC=C2
Outline: as §1

[10] = compound: COC1=CC=C(C=C1)CN2C=CC3=C2C=C(C=C3)C(=O)NO
Outline: as §1

[11] = compound: CON(C)C(=O)N1N=C(c2cc(F)ccc2F)S[C@@]1(CCCN)c1ccccc1 [filanesib]
Outline: as §1

[12] = compound: CO[C@H]1C[C@@H]2CC[C@@H](C)[C@@](O)(O2)C(=O)C(=O)N2CCCC[C@H]2C(=O)O[C@H]([C@H](C)C[C@@H]2CC[C@H](n3cnnn3)[C@H](OC)C2)CC(=O)[C@H](C)/C=C(\C)[C@@H](O)[C@@H](OC)C(=O)[C@H](C)C[C@H](C)/C=C/C=C/C=C/1C [zotarolimus]
Outline: as §1

[13] = compound: COc1cc(C(=O)O)ccc1NC(=O)[C@@H]1N[C@@H](CC(C)(C)C)[C@](C#N)(c2ccc(Cl)cc2F)[C@H]1c1cccc(Cl)c1F [idasanutlin]
Outline: as §1

[14] = compound: COc1cc(Nc2ncc3c(n2)-c2ccc(Cl)cc2C(c2c(F)cccc2OC)=NC3)ccc1C(=O)O [alisertib]
Outline: as §1

[15] = compound: COc1cc2nc(-c3cc(F)ccc3O)nc(N[C@@H]3CNC[C@H]3C(C)(C)O)c2cc1OC
Outline: as §1

[16] = compound: COc1cc2ncnc(Nc3ccc(F)c(Cl)c3)c2cc1OCCCN1CCOCC1 [gefitinib]
Outline: as §1

[17] = compound: COc1cccc2cc(-c3nc([C@H]4CC[C@H](C(=O)O)CC4)n4ncnc(N)c34)[nH]c12
Outline: as §1

[18] = compound: CS(=O)(=O)CCNCc1ccc(-c2ccc3ncnc(Nc4ccc(OCc5cccc(F)c5)c(Cl)c4)c3c2)o1 [lapatinib]
Outline: as §1

[19] = compound: CS(=O)(=O)N1CCN(Cc2cc3nc(-c4cccc5[nH]ncc45)nc(N4CCOCC4)c3s2)CC1 [pictilisib]
Outline: as §1

| Target | log2 fold change [1] | log2 fold change [2] | log2 fold change [3] | log2 fold change [4] | log2 fold change [5] | log2 fold change [6] | log2 fold change [7] | log2 fold change [8] | log2 fold change [9] | log2 fold change [10] | log2 fold change [11] | log2 fold change [12] | log2 fold change [13] | log2 fold change [14] | log2 fold change [15] | log2 fold change [16] | log2 fold change [17] | log2 fold change [18] | log2 fold change [19] |
| --- | --- | --- | --- | --- | --- | --- | --- | --- | --- | --- | --- | --- | --- | --- | --- | --- | --- | --- | --- |
| STK4 (UniProt Q13043) | inactive: 0.006 | inactive: 0.029 | inactive: 0.039 | inactive: 0.01 | inactive: -0.002 | inactive: -0.008 | inactive: 0.012 | inactive: 0.077 | inactive: -0.003 | inactive: -0.031 | inactive: -0.034 | inactive: -0.025 | inactive: 0.01 | inactive: -0.047 | inactive: 0.099 | inactive: -0.007 | inactive: 0.015 | inactive: -0.036 | inactive: 0.02 |
| SUPT5H (UniProt O00267) | inactive: -0.01 | inactive: -0.021 | inactive: 0.007 | inactive: -0.004 | inactive: -0.126 | inactive: -0.062 | inactive: 0.039 | inactive: 0.076 | inactive: -0.017 | inactive: 0.02 | inactive: -0.005 | inactive: 0.042 | inactive: -0.062 | inactive: -0.003 | inactive: 0.058 | inactive: 0.028 | inactive: 0.027 | inactive: -0.006 | inactive: 0.05 |
| STXBP2 isoform 3 (UniProt Q15833) | inactive: -0.138 | inactive: -0.242 | inactive: 0.085 | inactive: -0.091 | inactive: -0.133 | inactive: 0.157 | inactive: 0.142 | inactive: 0.176 | inactive: -0.203 | inactive: 0.021 | inactive: 0.001 | inactive: -0.043 | inactive: 0.043 | inactive: -0.034 | inactive: 0.045 | inactive: 0.043 | inactive: -0.066 | inactive: 0.007 | inactive: -0.091 |
| SYNE2 isoform 2 (UniProt Q8WXH0) | inactive: -0.121 | inactive: -0.005 | inactive: 0.071 | inactive: -0.109 | inactive: 0.029 | inactive: -0.045 | inactive: 0.049 | inactive: -0.107 | inactive: -0.006 | inactive: 0.112 | inactive: 0.048 | inactive: -0.057 | inactive: -0.185 | inactive: -0.054 | inactive: 0.34 | inactive: 0.078 | inactive: -0.004 | inactive: -0.133 | inactive: 0.205 |
| TAOK3 (UniProt Q9H2K8) | inactive: -0.002 | inactive: -0.089 | inactive: 0.042 | inactive: -0.031 | inactive: -0.109 | inactive: -0.013 | inactive: 0.019 | inactive: 0.052 | inactive: -0.044 | inactive: 0.047 | inactive: 0.014 | inactive: 0.002 | inactive: -0.003 | inactive: -0.038 | inactive: -0.049 | inactive: 0.001 | inactive: -0.011 | inactive: 0.061 | inactive: -0.001 |
| TAF9 (UniProt Q16594) | inactive: 0.076 | inactive: 0.021 | inactive: -0.023 | inactive: -0.1 | inactive: 0.016 | inactive: -0.019 | inactive: -0.065 | inactive: -0.048 | inactive: 0.103 | inactive: 0.066 | inactive: 0.109 | inactive: -0.018 | inactive: 0.056 | inactive: -0.109 | inactive: 0.024 | inactive: 0.01 | inactive: 0.019 | inactive: -0.028 | inactive: -0.017 |
| STXBP5 (UniProt Q5T5C0) | inactive: -0.014 | inactive: 0.019 | inactive: 0.01 | inactive: -0.023 | inactive: -0.011 | inactive: -0.002 | inactive: -0.032 | inactive: 0.028 | inactive: -0.003 | inactive: -0.012 | inactive: -0.039 | inactive: 0 | inactive: -0.022 | inactive: -0.084 | inactive: 0.015 | inactive: -0.006 | inactive: 0.003 | inactive: 0.023 | inactive: -0.038 |
| TARS2 (UniProt Q9BW92) | inactive: -0.004 | inactive: -0.049 | active: -0.357 | inactive: 0.03 | inactive: -0.033 | inactive: 0.009 | inactive: -0.098 | inactive: 0.015 | inactive: 0.039 | active: -0.487 | inactive: -0.02 | inactive: -0.006 | inactive: -0.084 | inactive: -0.021 | inactive: 0.044 | inactive: -0.023 | inactive: 0.041 | inactive: -0.022 | inactive: 0.004 |
| SUOX (UniProt P51687) | inactive: 0.02 | inactive: 0.013 | inactive: -0.031 | inactive: -0.01 | inactive: 0.031 | inactive: -0.037 | inactive: -0.022 | inactive: 0.001 | inactive: 0.042 | inactive: -0.321 | inactive: -0.014 | inactive: 0.02 | inactive: 0.013 | inactive: -0.014 | inactive: 0.088 | inactive: 0.007 | inactive: 0.022 | inactive: -0.088 | inactive: 0.158 |
| TANGO6 (UniProt Q9C0B7) | inactive: -0.09 | inactive: -0.135 | inactive: 0.116 | inactive: -0.077 |  | inactive: 0.586 | inactive: 0.037 | inactive: 0.001 |  | inactive: -0.025 | inactive: 0.04 | inactive: 0.061 | inactive: -0.112 | inactive: 0.032 | inactive: -0.015 | inactive: -0.049 | inactive: -0.036 | inactive: 0.022 |  |
| SUMO1 (UniProt P63165) | inactive: -0.112 | inactive: 0.011 | inactive: -0.073 | inactive: 0.022 | inactive: -0.067 | inactive: 0.056 | inactive: -0.09 | inactive: -0.029 | inactive: 0.028 | inactive: -0.363 | inactive: 0.102 | inactive: -0.183 | inactive: -0.099 | inactive: -0.052 | active: -0.507 | inactive: 0.004 | inactive: 0.055 | active: 0.549 | inactive: 0.006 |
| TANK (UniProt Q92844) | inactive: 0.118 | inactive: 0.033 | inactive: 0.03 | inactive: 0.236 | inactive: 0.045 | inactive: -0.016 | inactive: 0.052 | inactive: 0.064 | inactive: -0.03 | inactive: 0.017 | inactive: 0.03 | inactive: -0.024 | inactive: 0.02 | inactive: -0.028 | inactive: 0.097 | inactive: -0.032 | inactive: 0.048 | inactive: -0.015 | inactive: 0.027 |
| SUCLA2 (UniProt Q9P2R7) | inactive: -0.013 | inactive: 0.03 | inactive: 0.024 | inactive: 0.011 | inactive: -0.037 | inactive: -0.029 | inactive: -0.048 | inactive: 0.021 | inactive: -0.008 | inactive: -0.004 | inactive: -0.096 | inactive: 0.01 | inactive: -0.074 | inactive: 0.104 | inactive: 0.093 | inactive: 0.022 | inactive: 0.018 | inactive: -0.05 | inactive: 0.109 |
| SUMF1 isoform 3 (UniProt Q8NBK3) | inactive: -0.066 | inactive: 0.033 | inactive: 0.058 | inactive: -0.013 | inactive: 0.209 |  | inactive: -0.116 |  | inactive: 0.003 | inactive: 0.066 | inactive: -0.007 |  | inactive: 0.051 | inactive: -0.051 | inactive: 0.035 | inactive: -0.141 | inactive: 0.041 | inactive: 0.015 | inactive: -0.02 |
| SYNE1 (UniProt Q8NF91) | inactive: -0.054 | inactive: -0.086 | inactive: 0.193 | inactive: -0.14 | inactive: -0.092 | inactive: -0.039 | inactive: 0.045 | inactive: -0.101 | inactive: 0.076 | inactive: 0.316 | inactive: -0.079 | inactive: 0.019 | inactive: -0.029 | inactive: 0.002 |  | inactive: 0.049 | inactive: 0.084 |  | inactive: 0.187 |
| SUGP1 (UniProt Q8IWZ8) | inactive: 0.012 | inactive: -0.049 | inactive: 0.052 | inactive: -0.043 | inactive: -0.124 | inactive: -0.016 | inactive: -0.074 | inactive: -0.003 | inactive: -0.02 | inactive: 0.027 | inactive: -0.01 | inactive: 0 | inactive: 0.026 | inactive: -0.038 | inactive: -0.007 | inactive: 0.055 | inactive: -0.02 | inactive: -0.046 | inactive: 0.032 |
| STOM (UniProt P27105) | inactive: -0.015 | inactive: 0.039 | inactive: 0.016 | inactive: -0.019 | inactive: 0.068 | inactive: 0.006 | inactive: -0.03 | inactive: 0.016 | inactive: 0.002 | inactive: 0.004 | inactive: -0.068 | inactive: -0.083 | inactive: 0.046 | inactive: -0.154 | inactive: -0.045 | inactive: -0.062 | inactive: -0.004 | inactive: 0.067 | inactive: -0.022 |

Looked up one by one from the entries so far:

| Target | log2 fold change [1] | log2 fold change [2] | log2 fold change [3] | log2 fold change [4] | log2 fold change [5] | log2 fold change [6] | log2 fold change [7] | log2 fold change [8] | log2 fold change [9] | log2 fold change [10] | log2 fold change [11] | log2 fold change [12] | log2 fold change [13] | log2 fold change [14] | log2 fold change [15] | log2 fold change [16] | log2 fold change [17] | log2 fold change [18] | log2 fold change [19] |
| --- | --- | --- | --- | --- | --- | --- | --- | --- | --- | --- | --- | --- | --- | --- | --- | --- | --- | --- | --- |
| STXBP2 isoform 3 (UniProt Q15833) | inactive: -0.138 | inactive: -0.242 | inactive: 0.085 | inactive: -0.091 | inactive: -0.133 | inactive: 0.157 | inactive: 0.142 | inactive: 0.176 | inactive: -0.203 | inactive: 0.021 | inactive: 0.001 | inactive: -0.043 | inactive: 0.043 | inactive: -0.034 | inactive: 0.045 | inactive: 0.043 | inactive: -0.066 | inactive: 0.007 | inactive: -0.091 |
| STXBP5 (UniProt Q5T5C0) | inactive: -0.014 | inactive: 0.019 | inactive: 0.01 | inactive: -0.023 | inactive: -0.011 | inactive: -0.002 | inactive: -0.032 | inactive: 0.028 | inactive: -0.003 | inactive: -0.012 | inactive: -0.039 | inactive: 0 | inactive: -0.022 | inactive: -0.084 | inactive: 0.015 | inactive: -0.006 | inactive: 0.003 | inactive: 0.023 | inactive: -0.038 |
